Data taken from publication PMC10702821.
No constants are given. Whether binding was seen depends on the method and setting. In cells and extracts the contact can be indirect. These calls come from enrichment with a bait or labelling near it, and not all partners need be listed.

Chains of the proteins cited; added tags and fusions are not shown.
UniProt Q12888: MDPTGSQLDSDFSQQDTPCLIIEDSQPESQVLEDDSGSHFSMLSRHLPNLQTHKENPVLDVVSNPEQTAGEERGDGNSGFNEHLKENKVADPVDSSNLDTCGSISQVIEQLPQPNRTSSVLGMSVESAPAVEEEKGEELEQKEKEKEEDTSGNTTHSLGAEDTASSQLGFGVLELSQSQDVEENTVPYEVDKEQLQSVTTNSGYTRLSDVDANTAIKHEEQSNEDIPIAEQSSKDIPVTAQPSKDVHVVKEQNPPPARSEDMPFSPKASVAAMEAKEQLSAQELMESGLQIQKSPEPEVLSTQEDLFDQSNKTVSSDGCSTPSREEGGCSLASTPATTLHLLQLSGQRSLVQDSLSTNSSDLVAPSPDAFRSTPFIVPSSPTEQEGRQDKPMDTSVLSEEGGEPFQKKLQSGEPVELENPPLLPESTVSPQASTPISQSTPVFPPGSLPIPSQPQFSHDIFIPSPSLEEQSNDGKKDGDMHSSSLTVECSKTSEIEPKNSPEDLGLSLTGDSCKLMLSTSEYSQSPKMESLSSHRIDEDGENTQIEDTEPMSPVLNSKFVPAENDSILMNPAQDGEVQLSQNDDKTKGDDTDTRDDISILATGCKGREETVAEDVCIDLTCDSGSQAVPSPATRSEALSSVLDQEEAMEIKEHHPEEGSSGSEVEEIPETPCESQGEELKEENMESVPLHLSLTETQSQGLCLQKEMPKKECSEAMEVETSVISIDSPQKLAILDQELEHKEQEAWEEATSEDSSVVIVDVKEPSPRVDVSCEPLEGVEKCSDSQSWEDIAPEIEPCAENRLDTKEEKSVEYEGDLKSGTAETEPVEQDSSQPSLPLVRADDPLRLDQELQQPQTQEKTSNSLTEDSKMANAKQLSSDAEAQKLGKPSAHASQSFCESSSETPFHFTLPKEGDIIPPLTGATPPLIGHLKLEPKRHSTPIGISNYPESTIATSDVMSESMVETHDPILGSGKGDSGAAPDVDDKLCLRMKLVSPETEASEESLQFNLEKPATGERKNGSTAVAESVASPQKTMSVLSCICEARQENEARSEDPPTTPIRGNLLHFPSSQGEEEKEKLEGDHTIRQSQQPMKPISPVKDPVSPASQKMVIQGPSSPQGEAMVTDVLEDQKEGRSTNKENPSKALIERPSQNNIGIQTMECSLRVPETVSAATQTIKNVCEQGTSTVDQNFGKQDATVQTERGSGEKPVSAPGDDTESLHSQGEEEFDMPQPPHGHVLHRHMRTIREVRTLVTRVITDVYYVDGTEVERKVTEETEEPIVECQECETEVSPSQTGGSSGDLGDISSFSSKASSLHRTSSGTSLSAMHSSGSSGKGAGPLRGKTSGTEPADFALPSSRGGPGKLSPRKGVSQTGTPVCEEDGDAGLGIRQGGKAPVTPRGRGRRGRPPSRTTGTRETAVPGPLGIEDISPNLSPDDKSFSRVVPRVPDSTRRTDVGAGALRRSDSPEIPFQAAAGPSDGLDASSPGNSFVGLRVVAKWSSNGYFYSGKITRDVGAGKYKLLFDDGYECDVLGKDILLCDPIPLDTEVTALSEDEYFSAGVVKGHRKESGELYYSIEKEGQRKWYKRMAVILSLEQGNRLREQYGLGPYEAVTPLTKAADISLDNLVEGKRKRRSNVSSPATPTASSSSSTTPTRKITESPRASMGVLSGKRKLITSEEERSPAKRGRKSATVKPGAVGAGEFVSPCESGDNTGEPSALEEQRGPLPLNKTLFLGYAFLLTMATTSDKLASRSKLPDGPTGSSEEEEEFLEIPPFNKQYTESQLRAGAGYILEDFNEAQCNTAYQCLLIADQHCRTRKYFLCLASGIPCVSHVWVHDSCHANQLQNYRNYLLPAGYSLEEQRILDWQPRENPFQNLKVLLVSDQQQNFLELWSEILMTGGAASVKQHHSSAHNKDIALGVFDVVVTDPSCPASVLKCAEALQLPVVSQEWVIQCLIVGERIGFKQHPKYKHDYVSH
UniProt P53350: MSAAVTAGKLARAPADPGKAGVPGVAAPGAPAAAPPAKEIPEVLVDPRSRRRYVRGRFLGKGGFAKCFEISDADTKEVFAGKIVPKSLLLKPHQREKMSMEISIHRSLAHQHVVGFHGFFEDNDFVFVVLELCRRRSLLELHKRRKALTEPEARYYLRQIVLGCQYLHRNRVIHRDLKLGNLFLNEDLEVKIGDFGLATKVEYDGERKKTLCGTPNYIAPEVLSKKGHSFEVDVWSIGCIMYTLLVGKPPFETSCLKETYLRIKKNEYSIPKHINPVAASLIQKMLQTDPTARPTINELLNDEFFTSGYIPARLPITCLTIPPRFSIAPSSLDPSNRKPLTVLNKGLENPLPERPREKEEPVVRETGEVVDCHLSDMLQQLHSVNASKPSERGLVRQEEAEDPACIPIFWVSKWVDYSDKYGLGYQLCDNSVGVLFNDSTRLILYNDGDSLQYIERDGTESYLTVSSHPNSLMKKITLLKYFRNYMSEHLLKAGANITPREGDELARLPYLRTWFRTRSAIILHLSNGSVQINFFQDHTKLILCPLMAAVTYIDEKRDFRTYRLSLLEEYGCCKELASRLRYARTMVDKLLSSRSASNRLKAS
UniProt Q9BRJ7: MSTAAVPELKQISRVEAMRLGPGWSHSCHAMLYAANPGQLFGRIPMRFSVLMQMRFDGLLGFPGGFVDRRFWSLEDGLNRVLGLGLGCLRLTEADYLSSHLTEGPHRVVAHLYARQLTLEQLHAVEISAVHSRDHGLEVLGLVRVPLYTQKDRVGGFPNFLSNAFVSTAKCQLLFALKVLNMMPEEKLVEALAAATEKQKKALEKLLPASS
UniProt P49454: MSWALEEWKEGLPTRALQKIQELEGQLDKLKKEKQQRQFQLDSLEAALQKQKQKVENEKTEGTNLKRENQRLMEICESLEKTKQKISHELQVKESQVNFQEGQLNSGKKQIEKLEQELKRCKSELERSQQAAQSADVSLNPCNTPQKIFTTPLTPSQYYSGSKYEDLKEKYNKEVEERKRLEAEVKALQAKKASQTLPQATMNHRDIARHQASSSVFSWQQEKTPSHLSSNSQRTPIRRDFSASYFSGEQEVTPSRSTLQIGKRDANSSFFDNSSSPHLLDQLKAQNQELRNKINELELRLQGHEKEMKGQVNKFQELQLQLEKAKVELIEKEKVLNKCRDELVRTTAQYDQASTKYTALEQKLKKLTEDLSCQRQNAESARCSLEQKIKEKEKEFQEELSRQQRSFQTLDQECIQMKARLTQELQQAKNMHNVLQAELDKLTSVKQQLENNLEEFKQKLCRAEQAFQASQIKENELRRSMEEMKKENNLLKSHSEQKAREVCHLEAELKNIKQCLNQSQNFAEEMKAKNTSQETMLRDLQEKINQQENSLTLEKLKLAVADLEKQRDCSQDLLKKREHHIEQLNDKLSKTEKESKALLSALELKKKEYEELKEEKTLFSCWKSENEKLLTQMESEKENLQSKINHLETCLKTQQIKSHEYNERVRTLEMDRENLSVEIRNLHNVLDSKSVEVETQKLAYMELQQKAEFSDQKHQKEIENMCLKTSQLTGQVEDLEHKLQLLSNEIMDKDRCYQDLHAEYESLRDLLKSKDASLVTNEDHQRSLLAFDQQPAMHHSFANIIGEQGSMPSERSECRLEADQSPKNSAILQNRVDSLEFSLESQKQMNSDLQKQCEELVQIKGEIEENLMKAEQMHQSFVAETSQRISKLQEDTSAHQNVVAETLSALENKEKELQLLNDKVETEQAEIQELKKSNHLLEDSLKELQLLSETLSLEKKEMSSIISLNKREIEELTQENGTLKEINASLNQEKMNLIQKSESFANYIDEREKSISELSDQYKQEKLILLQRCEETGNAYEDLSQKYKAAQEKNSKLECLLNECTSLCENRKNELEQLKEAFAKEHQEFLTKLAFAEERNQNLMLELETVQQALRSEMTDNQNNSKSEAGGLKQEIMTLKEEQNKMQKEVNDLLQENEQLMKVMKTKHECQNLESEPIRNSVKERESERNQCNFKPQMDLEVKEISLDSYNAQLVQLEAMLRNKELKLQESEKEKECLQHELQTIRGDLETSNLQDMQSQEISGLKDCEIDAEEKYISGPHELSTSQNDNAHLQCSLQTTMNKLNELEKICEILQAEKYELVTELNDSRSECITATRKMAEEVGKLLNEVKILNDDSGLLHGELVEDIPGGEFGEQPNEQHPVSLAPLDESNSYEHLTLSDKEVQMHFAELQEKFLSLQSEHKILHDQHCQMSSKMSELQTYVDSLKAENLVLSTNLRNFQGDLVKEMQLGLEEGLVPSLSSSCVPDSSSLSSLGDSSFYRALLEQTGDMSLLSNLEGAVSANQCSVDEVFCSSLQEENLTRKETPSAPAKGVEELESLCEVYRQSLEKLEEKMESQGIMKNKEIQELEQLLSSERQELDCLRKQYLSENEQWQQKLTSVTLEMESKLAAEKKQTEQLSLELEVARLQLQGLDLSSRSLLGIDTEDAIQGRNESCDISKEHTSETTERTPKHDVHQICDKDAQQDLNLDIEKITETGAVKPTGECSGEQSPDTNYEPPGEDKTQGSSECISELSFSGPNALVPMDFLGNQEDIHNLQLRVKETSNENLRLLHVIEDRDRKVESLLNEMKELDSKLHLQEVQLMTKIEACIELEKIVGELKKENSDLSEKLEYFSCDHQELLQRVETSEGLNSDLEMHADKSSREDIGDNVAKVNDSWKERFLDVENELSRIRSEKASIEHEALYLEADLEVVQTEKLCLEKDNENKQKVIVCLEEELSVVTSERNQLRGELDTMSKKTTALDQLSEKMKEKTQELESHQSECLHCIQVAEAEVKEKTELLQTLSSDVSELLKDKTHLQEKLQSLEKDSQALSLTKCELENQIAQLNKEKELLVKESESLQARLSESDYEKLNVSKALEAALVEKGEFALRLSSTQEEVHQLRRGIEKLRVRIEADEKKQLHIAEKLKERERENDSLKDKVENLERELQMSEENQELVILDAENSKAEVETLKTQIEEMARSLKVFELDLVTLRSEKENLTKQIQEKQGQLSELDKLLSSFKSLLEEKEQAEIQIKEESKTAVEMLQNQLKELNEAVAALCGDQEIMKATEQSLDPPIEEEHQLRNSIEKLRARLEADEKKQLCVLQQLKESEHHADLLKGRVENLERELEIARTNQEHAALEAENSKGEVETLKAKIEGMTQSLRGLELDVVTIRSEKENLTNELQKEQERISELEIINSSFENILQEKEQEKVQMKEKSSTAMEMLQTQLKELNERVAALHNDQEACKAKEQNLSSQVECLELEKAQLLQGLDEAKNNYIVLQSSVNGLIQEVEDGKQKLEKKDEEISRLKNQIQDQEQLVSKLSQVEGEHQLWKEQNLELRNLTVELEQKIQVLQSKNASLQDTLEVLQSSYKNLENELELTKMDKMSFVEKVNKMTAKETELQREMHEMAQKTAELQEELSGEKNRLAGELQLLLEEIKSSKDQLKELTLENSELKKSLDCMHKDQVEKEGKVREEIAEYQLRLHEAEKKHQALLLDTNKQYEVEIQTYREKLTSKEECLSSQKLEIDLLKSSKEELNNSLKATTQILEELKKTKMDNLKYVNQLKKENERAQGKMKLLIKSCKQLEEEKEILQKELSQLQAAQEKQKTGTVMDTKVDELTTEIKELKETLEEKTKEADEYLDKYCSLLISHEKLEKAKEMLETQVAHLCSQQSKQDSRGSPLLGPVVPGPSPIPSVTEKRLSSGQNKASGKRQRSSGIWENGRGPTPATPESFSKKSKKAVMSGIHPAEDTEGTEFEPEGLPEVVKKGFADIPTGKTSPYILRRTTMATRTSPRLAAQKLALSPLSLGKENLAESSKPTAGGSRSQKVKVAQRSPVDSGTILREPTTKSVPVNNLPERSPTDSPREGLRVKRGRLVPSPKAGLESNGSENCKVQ

Molecular target: 53BP1-V5 (endogenous 53BP1 with a biallelic V5-epitope tag at the C-terminus) (human (endogenous in hTERT-RPE1)) (UniProt Q12888)
Assay: affinity purification with mass spectrometry; anti-V5 immunoprecipitation (protein A resin, 4 h, 4°C) from lysate of RPE1 53BP1-V5 knock-in cells synchronised in prometaphase (thymidine, then nocodazole 10 h, mitotic shake-off); untagged RPE1 WT mitotic cells as control; LC-MS/MS

Row | binding | Substance
1 | binds | Polo-like kinase 1 (PLK1) (from UniProt P53350 1-603) (enzyme)
2 | binds | NUDT16L1/TIRR (from UniProt Q9BRJ7 1-211)
3 | binds | CENP-F (endogenous, RPE1 cells) (from UniProt P49454 1-3114)
